# Experimental data as given in PubChem BioAssay AID1439 (NMMLSC, 2008).
# Sequences of proteins named here, by UniProt entry; tags and fusion partners are left off.
# UniProt P09471, whole entry, looked up: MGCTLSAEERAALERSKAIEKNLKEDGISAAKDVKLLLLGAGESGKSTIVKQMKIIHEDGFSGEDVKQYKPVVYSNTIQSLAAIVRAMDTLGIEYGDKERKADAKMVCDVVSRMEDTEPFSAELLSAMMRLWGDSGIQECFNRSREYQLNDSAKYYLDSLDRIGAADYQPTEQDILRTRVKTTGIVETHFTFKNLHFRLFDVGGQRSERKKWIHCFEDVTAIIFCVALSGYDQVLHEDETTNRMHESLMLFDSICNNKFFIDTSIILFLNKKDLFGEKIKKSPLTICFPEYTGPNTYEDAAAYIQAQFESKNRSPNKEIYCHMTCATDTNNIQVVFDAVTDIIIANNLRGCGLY
# Among all 220,000 compounds or so, about 770 (0.35%) were called active. The shares of active, inactive and inconclusive entries below differ from those in the screen. No stated cut-off is given here; in the data, active means binding response below about 49% or above about 150%; inconclusive means no clear call, values can overlap the other calls; inactive means in between.
# Biological target: Guanine nucleotide-binding protein G(o) subunit alpha (Homo sapiens) (UniProt P09471)
# Assay: RGS7-Galphao binding modulators, primary screen, biochemical, multiplexed bead flow cytometry (AID 1439);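 further: fluorescent Galphao held in activated GDP-AlF4 state binding bead-coupled RGS7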
# Settings: at 10 µM, actives lie on both sides
row,SMILES,binding response (% of control)
1,S=c1[nH]ccn1-c1c(Cl)cccc1Cl,inconclusive: 76.8%
2,NS(=O)(=O)c1ccc(NC(=O)CSc2ncccn2)cc1,inconclusive: 116%
3,CC(=O)c1cc(C#N)c(N2CC(C)OC(C)C2)nc1C (stereo not given),inconclusive: 69%
4,COc1ccc(Nc2nc(NCC3CCCO3)c3ccccc3n2)c(OC)c1 (stereo not given),inconclusive: 96.1%
5,CCOC(=O)CNc1nc2ccccc2n2c(C)nnc12,inconclusive: 82.7%
6,CC(C)C(NC(=O)c1ccco1)C(=O)OCc1cc([N+](=O)[O-])cc2c1OCOC2 (stereo not given),inconclusive: 95.5%
7,COc1cccc(C(=O)OCC(=O)NC(=O)NC2CCCC2)c1O,inactive: 104%
8,COC(=O)CCCC1=CC2=C(c3ccccc3)C(=O)C(C)(OC(=O)C3CCCC3)C(=O)C2=CN1CCc1c[nH]c2ccccc12 (stereo not given),inconclusive: 102%
9,C#CCn1c(=NC(=O)c2ccco2)sc2cccc(Cl)c21,inconclusive: -6.39%
10,O=C(NCc1ccco1)C(=O)NCC1OCCN1C(=O)c1ccc(Cl)cc1 (stereo not given),inconclusive: 112%
11,CCOc1cc(C(N)=O)cc(Br)c1OCc1ccccc1,inconclusive: 97.3%
12,COc1cc(C#N)c(N=C(SCC#N)N2CCOCC2)cc1OC,inconclusive: 115%
13,Cc1cc(/C=N/Nc2nc(N3CCOCC3)nc(N3CCOCC3)n2)c(C)n1-c1ccccc1,inactive: 50.8%
14,O=C1NNC(c2ccccc2)=N/C1=C\c1ccccc1Cl,inconclusive: 343%
15,COc1ccc2c(c1OC)C(=O)OC2Nc1ncc(Br)cc1Br (stereo not given),inactive: 112%
16,CCOc1ccc(/C(CCC(=O)O)=N/NC(=S)NCCc2ccccc2)cc1,inconclusive: 103%
17,COc1ccc(-c2c(C)oc3c(CN4CCOCC4)c(O)ccc3c2=O)cc1,inconclusive: 64.9%
18,Cc1ccc(NC(=O)c2ccc(OC(=O)COc3ccc(Cl)c(C)c3)cc2)cc1,inactive: 98.9%
19,CC(C)NC(=O)c1ccc(C(C)C)cc1,inconclusive: 81.8%
20,CCOC(=O)C1CCN(c2c(Nc3cc(C)cc(C)c3)c(=O)c2=O)CC1,inconclusive: 81.5%
21,COc1cc(SSc2cc(OC)cc([N+](=O)[O-])c2N)c(N)c([N+](=O)[O-])c1,inconclusive: 128%
22,CCOc1ccc(-c2c(C(=O)N/N=C/c3ccc(C)cc3)nnn2-c2nonc2N)cc1,inconclusive: 94.6%
23,C(=N\Nc1ccccn1)/c1ccc2c(c1)OCCO2,inactive: 96%

row,SMILES,binding response (% of control)
1,Cc1cc(C(=O)NNc2ccc(F)cc2)no1,inconclusive: 89.4%
2,C=CCNC(=S)Nc1cccc([N+](=O)[O-])c1,inconclusive: 92.1%
3,COc1ccc(CCNc2nc(-c3ccncc3)cs2)cc1OC,inconclusive: 118%
4,O=C(CCCOc1ccc(Cl)cc1Cl)NNC(=O)C1CCC1,inconclusive: 91.6%
5,Cc1ccc(S(=O)(=O)/N=S(/c2ccccc2)C(C)C)cc1 (stereo not given),inconclusive: 76.7%
6,CC(C)C(NC(=O)c1ccc(C(C)(C)C)cc1)C(=O)NCC(c1ccccc1)N(C)C (stereo not given),inconclusive: 92.6%
7,Cc1ccc(NC(=O)CSCc2n[nH]c(=O)[nH]2)c(Br)c1,inactive: 107%
8,COc1ccccc1C(=O)CSc1nnc(-c2ccco2)o1,inconclusive: 69.7%
9,CC(C)C(=O)NNC(=O)c1c(O)c2ccccc2[nH]c1=O,inconclusive: 55.3%
10,C/C=C/C(=O)Nc1cccc(C2=NOC3(C2)C[C@H](C(N)=O)N(C(=O)/C=C/C)C3)c1 (stereo not given in full),inconclusive: 137%
11,CCc1ccc(Nc2nnc(SCC(=O)NC(=O)c3cccn3C)s2)cc1,inconclusive: 108%
12,CC(=O)c1cc(NC(=O)c2ccc(C)cc2)c(=O)oc1C,inconclusive: 107%
13,Cc1sc2nc(CN3CCN(c4ccc(O)cc4)CC3)[nH]c(=O)c2c1C,inconclusive: 105%
14,Cc1cc2cc(C)c3nnc(SCC(=O)N4CCCc5ccccc54)n3c2cc1C,inactive: 87%
15,CSCCC(NC(=O)c1ccc(Cl)cc1Cl)C(=O)OCC(N)=O (stereo not given),inconclusive: 110%
16,COc1ccc(C(=O)NC(=S)Nc2ccc3oc(=O)ccc3c2)cc1OC,inactive: 116%
17,COc1ccc(NS(=O)(=O)c2cccc(NC(=O)c3ccc(S(=O)(=O)N4CCCCCC4)cc3)c2)cc1,inactive: 103%
18,O=C1c2ccccc2C(=O)N1CCc1ccccn1,inactive: 117%
19,CN(C)c1cc(NC(=O)CN2CCCC2)c2ccccc2n1,inconclusive: 103%
20,CCC(=O)c1ccc(OCC(=O)O)c(OC)c1,inconclusive: 102%
21,O=C(NCCCn1ccnc1)c1ccc(S(=O)(=O)Nc2ccccc2)cc1,inconclusive: 68.7%
22,O=C1NC(=S)N(C(=O)c2ccc(F)cc2)/C1=C/c1cccnc1,inconclusive: 89.7%
23,CC(=O)Nc1ccc(/C(C)=N/NC(=O)c2ccncc2)cc1,inconclusive: 54.1%

row,SMILES,binding response (% of control)
1,COc1cc(NC(=O)c2cc(C)nc3ccccc23)cc(OC)c1,inconclusive: 109%
2,CCOC(=O)N1CCN(C(=O)CN(Cc2ccc(Cl)cc2)S(=O)(=O)c2ccc(C)cc2)CC1,inactive: 91.7%
3,CCCCN1C(=O)NC(NC(C)=O)(C(F)(F)F)C1=O (stereo not given),inactive: 100%
4,CN(CC(=O)Nc1ccc(F)cc1)C(=O)COc1ncnc2ccccc12,inconclusive: 141%
5,O=C(Nc1ccc(F)cc1F)N1CCCN(c2ccc(C(F)(F)F)cn2)CC1,inconclusive: 36.1%
6,Cn1c(=O)c2cc3ccccc3nc2n(C)c1=O,inconclusive: 122%
7,COc1ccc(CCN(C)CCC(=O)Nc2cccc(C)c2)cc1OC,inconclusive: 83.2%
8,O=c1cc(COc2ccccc2[N+](=O)[O-])nc2sccn12,inconclusive: 216%
9,O=c1n(Cc2ccc(F)cc2)nc2n1-c1ccccc1SC2,inconclusive: -6.19%
10,O=C(CCN1CCN(c2ccccc2)CC1)N/N=C/c1ccccc1OC(F)F,inconclusive: 86.4%
11,CCCN(C(=S)Nc1ccccc1)C1CCS(=O)(=O)C1 (stereo not given),inactive: 103%
12,Cc1cc(N/N=C/c2ccccc2F)nc(NCc2ccccc2)n1,inconclusive: 107%
13,COc1ccc(CCn2c(C3CCCCC3)nc3c(c(=O)c4ccccc4n3C)c2=O)cc1OC,inconclusive: 96.3%
14,CCn1c(SCC(=O)N/N=C(/C)c2ccncc2)nc2ccccc21,inconclusive: 168%
15,COc1ccc(S(=O)(=O)NC(C)CCc2ccccc2)cc1 (stereo not given),inconclusive: 120%
16,N#CCC(=O)Nc1ccc(C(=O)NCc2cccc(Cl)c2)cc1,inconclusive: 94%
17,O=C1C2=C(CCCC2)C(=O)N1CNc1ccccc1,inconclusive: 83.5%
18,O=S(=O)(NCc1ccccc1)NCc1cccc(C(F)(F)F)c1,inconclusive: 97.1%
19,Cc1ccc2c(c1)N(CC(=O)OCC(=O)NCc1ccccc1)C(=O)CO2,inactive: 102%
20,CC(=O)Nc1ccc2nc(NC(=O)c3ccc([N+](=O)[O-])s3)sc2c1,inconclusive: 114%
21,c1ccc(CCn2nnc3ccccc32)cc1,inconclusive: 68%
22,O=C(Nc1ccc(Br)cc1Cl)N1CCOCC1,inconclusive: 123%
23,C/C(=N\Nc1cccc(C(=O)O)c1)c1cc2ccccc2o1,inconclusive: 99%

row,SMILES,binding response (% of control)
1,O=C(c1ccc(OC2CCN(Cc3ccccn3)CC2)cc1)N1CCCCO1,inactive: 99.5%
2,O=C1N=C(N2CCCCC2)S/C1=C/C1=Cc2ccccc2OC1,inconclusive: 107%
3,CCn1c(SCC(=O)N/N=C/c2ccccc2OCC(=O)O)nnc1-c1ccc(C)cc1,inconclusive: 107%
4,COc1ccc(-c2ccc([C@H]3[C@H]4C=CC[C@@H](C)[C@@H]4C(=O)N3Cc3ccccc3)c(F)c2)cc1OC,inconclusive: 85%
5,Cc1ccc(-c2c[n+](CC(=O)Nc3nc(-c4ccccc4)cs3)c3n2CCC3)cc1,inconclusive: 93.3%
6,COc1ccc(NC(=S)N2CCc3cc(OC)c(OC)cc3C2)cc1,inconclusive: 106%
7,CCC(C)C(=O)OCC1(c2ccc(C)cc2OC(=O)C(C)C)CO1 (stereo not given),inconclusive: 129%
8,c1ccc(Nc2cccc3c(Nc4ccccc4)cccc23)cc1,inconclusive: 85.3%
9,C=CCN1C(=O)C(O)(CC(=O)c2ccccn2)c2ccccc21 (stereo not given),inconclusive: 104%
10,O=C(Nc1ccc(Cl)cc1)NN1CC(=O)N(c2cccc(C(F)(F)F)c2)CC1=O,inconclusive: 84%
11,Nc1ncnc2nc(SCCC(=O)O)[nH]c12,inconclusive: 87.6%
12,N/C(=N\OC(=O)N1CCOCC1)c1ccc(Br)cc1,inactive: 98.9%
13,NCCCCC(NC(=O)C1CCCN1C(=O)C1CSSCC(N)C(=O)NC(Cc2ccc(O)cc2)C(=O)NC(Cc2ccccc2)C(=O)NC(CCC(N)=O)C(=O)NC(CC(N)=O)C(=O)N1)C(=O)NCC(N)=O (stereo not given),inactive: 104%
14,CC(C)Nc1nc(NNc2nc(Cl)nc(NC(C)(C)C)n2)nc(NC(C)C)n1,inconclusive: 100%
15,COc1ccccc1NC(=O)c1ccc(CSc2ncccn2)cc1,inactive: 98.3%
16,C/C=C(/C)C(=O)Nc1cccc(C2=NOC3(C2)C[C@H](C(N)=O)N(C(=O)c2ccc(Cl)cc2)C3)c1 (stereo not given in full),inconclusive: 92%
17,COc1ccc(N/N=C/c2c(C(=O)O)ccc3ccccc23)cc1,inconclusive: 66.7%
18,O=C(NNc1ccc(F)cc1F)c1c(F)cccc1Cl,inconclusive: 105%
19,CCn1c(NCCO)nc2c(c1=O)C(C)(CC)Cc1ccccc1-2 (stereo not given),inconclusive: 160%
20,CC(C)(C)C(=O)C(Oc1cccc2nonc12)n1cncn1 (stereo not given),inactive: 105%
21,Cc1cc(C)c2c(N)c(C(=O)NC3CCCC3)sc2n1,inactive: 147%

# In a second layout: entries from further up.
row	SMILES	binding response (% of control)
1	O=C(c1ccc(OC2CCN(Cc3ccccn3)CC2)cc1)N1CCCCO1	inactive: 99.5%
2	O=C1N=C(N2CCCCC2)S/C1=C/C1=Cc2ccccc2OC1	inconclusive: 107%
3	CCn1c(SCC(=O)N/N=C/c2ccccc2OCC(=O)O)nnc1-c1ccc(C)cc1	inconclusive: 107%
4	COc1ccc(-c2ccc([C@H]3[C@H]4C=CC[C@@H](C)[C@@H]4C(=O)N3Cc3ccccc3)c(F)c2)cc1OC	inconclusive: 85%
5	Cc1ccc(-c2c[n+](CC(=O)Nc3nc(-c4ccccc4)cs3)c3n2CCC3)cc1	inconclusive: 93.3%
6	COc1ccc(NC(=S)N2CCc3cc(OC)c(OC)cc3C2)cc1	inconclusive: 106%
7	CCC(C)C(=O)OCC1(c2ccc(C)cc2OC(=O)C(C)C)CO1 (stereo not given)	inconclusive: 129%
8	c1ccc(Nc2cccc3c(Nc4ccccc4)cccc23)cc1	inconclusive: 85.3%
9	C=CCN1C(=O)C(O)(CC(=O)c2ccccn2)c2ccccc21 (stereo not given)	inconclusive: 104%
10	O=C(Nc1ccc(Cl)cc1)NN1CC(=O)N(c2cccc(C(F)(F)F)c2)CC1=O	inconclusive: 84%
11	Nc1ncnc2nc(SCCC(=O)O)[nH]c12	inconclusive: 87.6%
12	N/C(=N\OC(=O)N1CCOCC1)c1ccc(Br)cc1	inactive: 98.9%
13	NCCCCC(NC(=O)C1CCCN1C(=O)C1CSSCC(N)C(=O)NC(Cc2ccc(O)cc2)C(=O)NC(Cc2ccccc2)C(=O)NC(CCC(N)=O)C(=O)NC(CC(N)=O)C(=O)N1)C(=O)NCC(N)=O (stereo not given)	inactive: 104%
14	CC(C)Nc1nc(NNc2nc(Cl)nc(NC(C)(C)C)n2)nc(NC(C)C)n1	inconclusive: 100%
15	COc1ccccc1NC(=O)c1ccc(CSc2ncccn2)cc1	inactive: 98.3%
16	C/C=C(/C)C(=O)Nc1cccc(C2=NOC3(C2)C[C@H](C(N)=O)N(C(=O)c2ccc(Cl)cc2)C3)c1 (stereo not given in full)	inconclusive: 92%
17	COc1ccc(N/N=C/c2c(C(=O)O)ccc3ccccc23)cc1	inconclusive: 66.7%
18	O=C(NNc1ccc(F)cc1F)c1c(F)cccc1Cl	inconclusive: 105%
19	CCn1c(NCCO)nc2c(c1=O)C(C)(CC)Cc1ccccc1-2 (stereo not given)	inconclusive: 160%
20	CC(C)(C)C(=O)C(Oc1cccc2nonc12)n1cncn1 (stereo not given)	inactive: 105%
21	Cc1cc(C)c2c(N)c(C(=O)NC3CCCC3)sc2n1	inactive: 147%
